Laboratory results as given in paper PMC10968571.
No constants are given. Whether binding was seen depends on the method and setting. In cells and extracts the contact can be indirect. Binding calls can cover weak binding; strength is not graded here. Sequences can lack the tags named with a protein.

Key:
[1] = molecular target: T1, GST-SMYD3 (mouse) (UniProt Q9CWR2); assay: pull-down; purified GST-SMYD3 or its truncations on glutathione Sepharose beads, incubated with 1 mg whole-cell lysate from RCTE cells in cell lysis buffer overnight at 4 °C; blot with α-tubulin antibody; only the target purified
T1 sequence: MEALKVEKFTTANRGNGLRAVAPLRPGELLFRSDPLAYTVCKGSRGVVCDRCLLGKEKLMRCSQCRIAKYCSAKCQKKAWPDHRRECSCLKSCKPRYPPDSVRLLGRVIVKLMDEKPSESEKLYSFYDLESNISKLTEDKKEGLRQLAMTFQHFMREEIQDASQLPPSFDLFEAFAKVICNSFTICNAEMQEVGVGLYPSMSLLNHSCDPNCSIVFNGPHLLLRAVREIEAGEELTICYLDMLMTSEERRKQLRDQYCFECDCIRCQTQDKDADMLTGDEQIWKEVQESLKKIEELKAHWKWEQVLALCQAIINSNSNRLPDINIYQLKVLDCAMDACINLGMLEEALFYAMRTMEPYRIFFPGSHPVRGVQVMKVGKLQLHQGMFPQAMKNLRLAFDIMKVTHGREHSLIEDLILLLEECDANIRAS

[2] = molecular target: T2, Flag-tagged SMYD3 (UniProt Q9CWR2); assay: co-IP; Flag-SMYD3 and GFP-WT-α-tubulin expressed in HEK293T cells; anti-Flag or anti-GFP antibodies coupled to protein A agarose beads; Western blot
T2 sequence: T1 sequence

[3] = molecular target: GFP-tagged wild-type α-tubulin; assay: as above

## α-tubulin (human (endogenous in RCTE))
[1]
  binding: binds

## GFP-tagged wild-type α-tubulin
[2]
  binding: binds

B1: Flag-tagged SMYD3 (enzyme, UniProt Q9CWR2 1-428)
chain: T1 sequence
[3]
  binding: binds
